Data as given in patent EP1129187B1, “NEW FAMILY OF MAMMALIAN POTASSIUM CHANNELS, THEIR CLONING AND THEIR USE, ESPECIALLY FOR THE SCREENING OF DRUGS” (CENTRE NATIONAL DE LA RECHERCHE SCIENTIFIQUE (CNRS), priority 1998, dated 2000).
At least one structure is not confirmed: it was looked up by name or label, or the drawing left a doubt. Some of these results come from one statement about several compounds together.

Sequences of proteins named here, by UniProt entry; tags and fusion partners are left off. A change or cut given only in a name is not applied to a line headed by its entry.
UniProt O14649: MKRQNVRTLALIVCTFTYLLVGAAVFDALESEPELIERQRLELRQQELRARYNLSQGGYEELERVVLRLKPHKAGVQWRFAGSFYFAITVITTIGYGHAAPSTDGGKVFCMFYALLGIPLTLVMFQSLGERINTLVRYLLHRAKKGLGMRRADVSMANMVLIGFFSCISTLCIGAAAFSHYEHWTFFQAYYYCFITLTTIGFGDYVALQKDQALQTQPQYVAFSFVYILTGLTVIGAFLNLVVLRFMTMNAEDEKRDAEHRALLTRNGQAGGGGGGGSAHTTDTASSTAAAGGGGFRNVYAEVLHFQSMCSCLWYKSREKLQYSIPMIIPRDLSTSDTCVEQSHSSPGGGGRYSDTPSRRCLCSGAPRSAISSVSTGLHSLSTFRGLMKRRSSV

Columns and labels:
[1] = biological target: human TASK1 K+ channel, SEQ ID NO: 4 (Homo sapiens, UniProt O14649); assay: TASK1 currents elicited by voltage pulses to +50 mV, two-electrode voltage clamp in Xenopus oocytes; type: cell-based
Protocol: For functional studies, TASK1 cRNAs were injected into Xenopus oocytes. This was accomplished by subcloning a 2480 bp SmaI/XhoI fragment from pBS-hT ASK containing 14 bp of 5' UTR, the coding sequence and the entire 3' UTR into the pEXO vector (Lingueglia et al., 1993) to give pEXO-TASK1. Capped-cRNAs were synthesised in vitro from the linearized plasmid by using the T7 RNA polymerase (Stratagene). Xenopus laevis were purchased from CRBM (Montpellier, France). Preparation and cRNA injection of oocytes has been described elsewhere (Guillemare et al., 1992). Oocytes were used for electrophysiological studies 2 to 4 days following injection (20 ng/oocyte). In a 0.3 ml perfusion chamber, a single oocyte was impaled with two standard microelectrodes (1-2.5 Mn resistance) filled with 3 M KCI and maintained under voltage clamp by using a Dagan TEV 200 amplifier, in standard ND96 solution (96 mM NaC1. 2 mM KCI, 1.8 mM CaCI2, 2 mM MgCl2, 5 mM HEPES, pH 7.4 with NaOH). In some experiments, NaCl was substituted with TMA Cl (Tetra Methyl Ammonium Chloride). […]
Figure 12A presents the I-V relationships of the current in K^+-rich solutions ranging from 2 mM to 98 mM. […] The theoretical I-V relationships in various [K^+]out calculated according to the Goldman-Hodgkin-Katz current equation are shown in Figure 12D. […]

[2] = biological target: T1, human TASK-2 K+ channel, SEQ ID NO: 28 (Homo sapiens, UniProt O95279); assay: TASK-2 currents elicited by voltage pulses to +50 mV, whole cell recording in transfected COS cells; type: cell-based; details: forskolin 10 µM in a cocktail with IBMX 1 mM, increasing intracellular cAMP
T1 construct: expressed in transfected cells; host or cells: COS cells transiently transfected with pIREScd8-TASK-2 (DEAE-dextran)
T1 sequence (O95279 1-499): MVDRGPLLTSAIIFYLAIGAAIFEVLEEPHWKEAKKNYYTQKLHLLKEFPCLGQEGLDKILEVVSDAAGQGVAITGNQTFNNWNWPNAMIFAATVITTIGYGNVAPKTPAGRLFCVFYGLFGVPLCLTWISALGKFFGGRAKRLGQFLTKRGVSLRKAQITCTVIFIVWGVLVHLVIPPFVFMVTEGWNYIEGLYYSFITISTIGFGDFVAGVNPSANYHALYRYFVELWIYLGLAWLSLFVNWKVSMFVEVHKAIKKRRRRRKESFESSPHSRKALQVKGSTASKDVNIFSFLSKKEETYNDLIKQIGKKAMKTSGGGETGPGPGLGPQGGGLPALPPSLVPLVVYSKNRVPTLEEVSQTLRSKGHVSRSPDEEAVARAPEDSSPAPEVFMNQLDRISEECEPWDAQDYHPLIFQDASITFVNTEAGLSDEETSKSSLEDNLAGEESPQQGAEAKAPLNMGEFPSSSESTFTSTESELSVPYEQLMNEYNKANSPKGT
Protocol: For patch clamp analyses, a NotI/EcoRI fragment of 3.2 kb was excised from pBS-TASK 2 and subcloned into the pIRES-CD8 vectorto givepIREScdB-TASK-2. ThepIRES-CD8 vector was obtained by replacing the neo^R gene in the original vector pIRESneo (Clontech) by the coding sequence of the T type lymphocyte's surface marker CD8. COS cells were seeded at a density of 20,000 cells per 35 mm dishes 24 h prior to transfection. Cells were then transiently transfected by the classical DEAE-dextian method with 1 µg of prREScdB-TASK-2 plasmid per 35 mm dish. Transiently-transfected cells were visualized 48 h after transfection using the anti-CD8 antibody coated beads method (24). For whole cell recordings, the internal solution contained 150 mM KCI, 3 mM MgCl2, 5 mM EGTA, and 10 mM HEPES at pH 7.2 with KOH, and he external solution 150 mM NaCl, 5 mM KCI, 3 mM MgCl2 1 mM CaCl2, 10 mM HEPES at pH 7.4 with NaOH.
The effects of various pharmacological agents on currents elicited by voltage pulses to +50 mV have been studied in TASK-2-exprcssing. COS cells.

Compound: C=C[C@@]1(C)CC(=O)[C@]2(O)[C@@]3(C)[C@@H](O)CCC(C)(C)[C@@H]3[C@H](O)[C@H](OC(C)=O)[C@@]2(C)O1 [forskolin]
- sensitivity of TASK1 currents ([1]; forskolin 10 µM perfused together with IBMX 1 mM, activation of adenyl cyclase): insensitive
- sensitivity of TASK-2 currents [2]: insensitive

Compound: Nc1ccncc1 [4-aminopyridine]
- effect on TASK1 currents ([1]; 1 mM, +50 mV): inactive
